From publication PMC6016865
Results are given in words; binding and its absence hold for the method and conditions named.

Protein sequences, listed by entry. Tags and fused reporters are not part of them. Lines headed by an entry give the natural chain unless they say otherwise; changes in a name come on top. Residues count along the entry.
UniProt P09429, residues 1-185: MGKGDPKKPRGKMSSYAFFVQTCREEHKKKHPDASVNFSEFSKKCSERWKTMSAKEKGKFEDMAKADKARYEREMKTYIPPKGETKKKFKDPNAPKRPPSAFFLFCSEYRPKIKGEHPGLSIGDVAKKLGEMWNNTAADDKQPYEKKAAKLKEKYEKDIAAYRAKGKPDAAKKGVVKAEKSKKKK
UniProt P20333, residues 23-257: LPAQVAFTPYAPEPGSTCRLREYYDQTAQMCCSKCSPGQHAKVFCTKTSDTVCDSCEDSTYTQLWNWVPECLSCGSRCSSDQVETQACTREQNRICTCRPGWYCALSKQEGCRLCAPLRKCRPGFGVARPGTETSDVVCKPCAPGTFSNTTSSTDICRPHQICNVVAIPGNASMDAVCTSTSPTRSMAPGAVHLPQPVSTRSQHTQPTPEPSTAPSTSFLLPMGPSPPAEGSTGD

Biological target: Δ30 HMGB1 (lacking the C-terminal tail; residues 1–185) (human) (UniProt P09429)
Assay: ELISA; plates coated with 40 nmol HMGB1 protein in PBS pH 7.2, 2 h 37 °C; blocked with 1% BSA; 0.2–1.25 μg/mL TLR2-Fc (or TNFR-Fc) in 1% BSA in PBS pH 7.2, 2 h; detected with anti-human IgG HRP and TMB; some samples treated with H2O2 or DTT; both purified

Substance: Etanercept (TNFR-Fc; Pfizer) (from UniProt P20333 23-257) (Fc fusion)
- binding: no binding (tested: 0.2–1.25 μg/mL Etanercept)
